{"source": "the supplement of paper PMC4635364", "key": {"[1]": {"tested_on": "ReNCell VM", "test": "neuronal differentiation score (DCX+ cell fraction vs untreated, manual image score) (score (-3 to 3)); higher = more neuronal differentiation", "conditions": "2 uM, 2 weeks"}, "[2]": {"tested_on": "ReNCell VM", "test": "dopaminergic neuron differentiation score (TH+ cell fraction vs untreated, manual image score) (score (0 to 3)); higher = more TH+ dopaminergic neuron differentiation", "conditions": "2 uM, 4 weeks, BDNF 10 ng/ml + GDNF 10 ng/ml"}}, "note": "Where a name gives a salt, the structure may show the parent alone. This is one part of the list. This data set is noisy: repeats of one test often differ as much as different tests do.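 Human fetal ventral-midbrain neural progenitor line ReNCell VM, differentiated without mitogens. Images stained for doublecortin (early neurons) or tyrosine hydroxylase (dopaminergic neurons) were scored by blinded raters against untreated wells (0 = no change). Repeats and both raters were averaged, and compounds averaging 2 or higher were picked as hits for retesting.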"}
{"smiles": "O=C(O)C1CSC(c2cccnc2)N1", "note": "(centres undefined) [2-pyridin-3-yl-thiazolidine-4-carboxylic acid]", "values": [{"measurement": "neuronal differentiation score", "setting": "[1]; library: Natural", "value": "inactive: 0"}, {"measurement": "dopaminergic neuron differentiation score", "setting": "[2]; library: Natural", "value": "inactive: 0"}]}
{"smiles": "COc1ccc(CC2c3cc(OC)c(OC)cc3CCN2C)cc1OC", "note": "(racemic) [Laudanosine (R,S)]", "values": [{"measurement": "neuronal differentiation score", "setting": "[1]; library: Phytochemical", "value": "inactive: 0"}, {"measurement": "dopaminergic neuron differentiation score", "setting": "[2]; library: Phytochemical", "value": "inactive: 0"}]}
{"smiles": "Cc1cc(C(C#N)c2ccc(Cl)cc2)c(Cl)cc1NC(=O)c1cc(I)cc(I)c1O", "note": "(centres undefined) [Closantel]", "values": [{"measurement": "neuronal differentiation score", "setting": "[1]; library: Prestwick", "value": "inactive: 0"}, {"measurement": "dopaminergic neuron differentiation score", "setting": "[2]; library: Prestwick", "value": "inactive: 0"}]}
{"smiles": "CC(=O)O[C@@H]1C[C@@]2(C)[C@H](c3ccoc3)C[C@H]3O[C@]32[C@]2(C)C(=O)C(O)=C3C(C)(C)C(=O)C=C[C@]3(C)[C@@H]12", "note": "[anthothecol]", "values": [{"measurement": "neuronal differentiation score", "setting": "[1]; library: Natural", "value": "inactive: 0"}, {"measurement": "dopaminergic neuron differentiation score", "setting": "[2]; library: Natural", "value": "inactive: 0"}]}
{"smiles": "CC(=O)[O][Hg][c]1ccccc1", "values": [{"measurement": "neuronal differentiation score", "setting": "[1]; library: Spectrum", "value": "inactive: 0"}, {"measurement": "dopaminergic neuron differentiation score", "setting": "[2]; library: Spectrum", "value": "inactive: 0"}]}
{"smiles": "CN1CCN(C(=O)OC2c3nccnc3C(=O)N2c2ccc(Cl)cn2)CC1", "note": "(centres undefined) [Zopiclone]", "values": [{"measurement": "neuronal differentiation score", "setting": "[1]; library: Prestwick", "value": "inactive: 0"}, {"measurement": "dopaminergic neuron differentiation score", "setting": "[2]; library: Prestwick", "value": "inactive: 0"}]}
{"smiles": "CN1C[C@H](C(=O)N[C@]2(C)O[C@@]3(O)[C@@H]4CCCN4C(=O)[C@H](Cc4ccccc4)N3C2=O)C[C@@H]2c3cccc4[nH]cc(c34)C[C@H]21", "note": "[Dihydroergotamine tartrate]", "values": [{"measurement": "neuronal differentiation score", "setting": "[1]; library: Prestwick", "value": "inactive: 0"}, {"measurement": "dopaminergic neuron differentiation score", "setting": "[2]; library: Prestwick", "value": "inactive: 0"}]}
{"smiles": "CC(C)(C)OC(=O)c1ncn2c1[C@@H]1CCCN1C(=O)c1c(Br)cccc1-2", "note": "[Bretazenil]", "values": [{"measurement": "neuronal differentiation score", "setting": "[1]; library: Tocriscreen", "value": "inactive: 0"}, {"measurement": "dopaminergic neuron differentiation score", "setting": "[2]; library: Tocriscreen", "value": "inactive: 0"}]}
{"smiles": "C[C@]12CC[C@@H](O)C[C@H]1CC[C@@H]1[C@@H]2CC[C@]2(C)C(=O)CC[C@@H]12", "note": "[3-alpha-Hydroxy-5-beta-androstan-17-one]", "values": [{"measurement": "neuronal differentiation score", "setting": "[1]; library: Prestwick", "value": "inactive: 0"}, {"measurement": "dopaminergic neuron differentiation score", "setting": "[2]; library: Prestwick", "value": "inactive: 0"}]}
{"smiles": "[O-][n+]1ccccc1[S-].[O-][n+]1ccccc1[S-].[Zn+2]", "values": [{"measurement": "neuronal differentiation score", "setting": "[1]; library: Spectrum", "value": "inactive: 1"}, {"measurement": "dopaminergic neuron differentiation score", "setting": "[2]; library: Spectrum", "value": "inactive: 0"}]}
{"smiles": "O=c1cccc2n1C[C@@H]1CNC[C@H]2C1", "note": "[Cytisine nitrate hydrate]", "values": [{"measurement": "neuronal differentiation score", "setting": "[1]; library: Phytochemical", "value": "inactive: 0"}, {"measurement": "dopaminergic neuron differentiation score", "setting": "[2]; library: Phytochemical", "value": "inactive: 0"}]}
{"smiles": "C[C@]12C[C@H]3S[C@H]3C[C@@H]1CC[C@@H]1[C@@H]2CC[C@]2(C)[C@@H](O)CC[C@@H]12", "note": "[Epitiostanol]", "values": [{"measurement": "neuronal differentiation score", "setting": "[1]; library: Prestwick", "value": "inactive: 0"}, {"measurement": "dopaminergic neuron differentiation score", "setting": "[2]; library: Prestwick", "value": "inactive: 0"}]}
{"smiles": "CNCCc1ccc(O)c(O)c1", "note": "[N-Methyldopamine hydrochloride]", "values": [{"measurement": "neuronal differentiation score", "setting": "[1]; library: LOPAC", "value": "inactive: 0"}, {"measurement": "dopaminergic neuron differentiation score", "setting": "[2]; library: LOPAC", "value": "inactive: 0"}]}
{"smiles": "CC[C@H]1C[C@@H]2CN3CCc4c([nH]c5ccccc45)[C@](C(=O)OC)(C2)[C@H]13", "note": "[Coronaridine]", "values": [{"measurement": "neuronal differentiation score", "setting": "[1]; library: Phytochemical", "value": "inactive: 0"}, {"measurement": "dopaminergic neuron differentiation score", "setting": "[2]; library: Phytochemical", "value": "inactive: 0"}]}
{"smiles": "CCCN1CCc2cc(O)cc3c2[C@H]1Cc1ccc(O)c(O)c1-3", "note": "[R(-)-2,10,11-Trihydroxy-N-propylnoraporphine hydrobromide]", "values": [{"measurement": "neuronal differentiation score", "setting": "[1]; library: LOPAC", "value": "inactive: 0"}, {"measurement": "dopaminergic neuron differentiation score", "setting": "[2]; library: LOPAC", "value": "inactive: 0"}]}
{"smiles": "Cc1cc2c(C(C)C)c(O)c(O)c(C=O)c2c(O)c1-c1c(C)cc2c(C(C)C)c(O)c(O)c(C=O)c2c1O", "note": "[Gossypol]", "values": [{"measurement": "neuronal differentiation score", "setting": "[1]; library: Phytochemical", "value": "inactive: 0"}, {"measurement": "dopaminergic neuron differentiation score", "setting": "[2]; library: Phytochemical", "value": "inactive: 0"}]}
{"smiles": "O=C1CN=C(c2cccc(Br)c2)c2oc3ccccc3c2N1", "values": [{"measurement": "neuronal differentiation score", "setting": "[1]; library: Tocriscreen", "value": "inactive: 0"}, {"measurement": "dopaminergic neuron differentiation score", "setting": "[2]; library: Tocriscreen", "value": "inactive: 1"}]}
{"smiles": "N#Cc1ccc(N2CCN(C(=O)COc3ccc4[nH]cc(CCN)c4c3)CC2)cc1", "note": "[Donitriptan hydrochloride]", "values": [{"measurement": "neuronal differentiation score", "setting": "[1]; library: Tocriscreen", "value": "inactive: 0"}, {"measurement": "dopaminergic neuron differentiation score", "setting": "[2]; library: Tocriscreen", "value": "inactive: 0"}]}
{"smiles": "C[N+]1(C)CCCC(OC(=O)C(O)(c2ccccc2)c2ccccc2)C1", "note": "(centres undefined) [Mepenzolate bromide]", "values": [{"measurement": "neuronal differentiation score", "setting": "[1]; library: Prestwick", "value": "inactive: 0"}, {"measurement": "dopaminergic neuron differentiation score", "setting": "[2]; library: Prestwick", "value": "inactive: 0"}]}
{"smiles": "C#CCOC(=O)C1=CCCN(C)C1", "note": "[Arecaidine propargyl ester tosylate]", "values": [{"measurement": "neuronal differentiation score", "setting": "[1]; library: Tocriscreen", "value": "inactive: 0"}, {"measurement": "dopaminergic neuron differentiation score", "setting": "[2]; library: Tocriscreen", "value": "inactive: 0"}]}
{"smiles": "N#CC(C#N)=Cc1cc(O)c(O)c(O)c1", "note": "[Tyrphostin 25]", "values": [{"measurement": "neuronal differentiation score", "setting": "[1]; library: LOPAC", "value": "inactive: 0"}, {"measurement": "dopaminergic neuron differentiation score", "setting": "[2]; library: LOPAC", "value": "inactive: 0"}]}
{"smiles": "CCCCc1ccc(C(=O)O)nc1", "values": [{"measurement": "neuronal differentiation score", "setting": "[1]; library: Spectrum", "value": "inactive: 0"}, {"measurement": "dopaminergic neuron differentiation score", "setting": "[2]; library: Spectrum", "value": "inactive: 0"}]}
{"smiles": "O=C1C2CCN(CC2)C1(CO)CO", "values": [{"measurement": "neuronal differentiation score", "setting": "[1]; library: Tocriscreen", "value": "inactive: 0"}, {"measurement": "dopaminergic neuron differentiation score", "setting": "[2]; library: Tocriscreen", "value": "inactive: 0"}]}
{"smiles": "Fc1ccc(C(OCCN2CCN(C/C=C/c3ccccc3)CC2)c2ccc(F)cc2)cc1", "values": [{"measurement": "neuronal differentiation score", "setting": "[1]; library: Tocriscreen", "value": "inactive: 0"}, {"measurement": "dopaminergic neuron differentiation score", "setting": "[2]; library: Tocriscreen", "value": "inactive: 0"}]}
{"smiles": "CC1(C)C(=O)C=C[C@]2(C)[C@H]3CC[C@@]4(C)[C@H](c5ccoc5)OC(=O)[C@H]5O[C@]54[C@]3(C)[C@H](O)C[C@@H]12", "values": [{"measurement": "neuronal differentiation score", "setting": "[1]; library: Spectrum", "value": "inactive: -1"}, {"measurement": "dopaminergic neuron differentiation score", "setting": "[2]; library: Spectrum", "value": "inactive: 1"}]}
{"smiles": "O=C(CCCN1CCC2(CC1)C(=O)N(Cc1cccc(F)c1)CN2c1ccccc1)c1ccc(F)cc1", "note": "[3'-Fluorobenzylspiperone maleate]", "values": [{"measurement": "neuronal differentiation score", "setting": "[1]; library: Tocriscreen", "value": "inactive: 0"}, {"measurement": "dopaminergic neuron differentiation score", "setting": "[2]; library: Tocriscreen", "value": "inactive: 0"}]}
{"smiles": "CN1C[C@@H](NS(=O)(=O)N(C)C)C[C@@H]2c3cccc4c3c(cn4C)C[C@H]21", "note": "[Mesulergine hydrochloride]", "values": [{"measurement": "neuronal differentiation score", "setting": "[1]; library: LOPAC", "value": "inactive: 0"}, {"measurement": "dopaminergic neuron differentiation score", "setting": "[2]; library: LOPAC", "value": "inactive: 0"}]}
{"smiles": "C=CCc1ccc2c(c1)OCO2", "values": [{"measurement": "neuronal differentiation score", "setting": "[1]; library: Spectrum", "value": "inactive: 0"}, {"measurement": "dopaminergic neuron differentiation score", "setting": "[2]; library: Spectrum", "value": "inactive: 0"}]}
{"smiles": "C[C@H]1OC[C@@H](C[N+](C)(C)C)O1", "note": "[(+)-cis-Dioxolane]", "values": [{"measurement": "neuronal differentiation score", "setting": "[1]; library: LOPAC", "value": "inactive: 0"}, {"measurement": "dopaminergic neuron differentiation score", "setting": "[2]; library: LOPAC", "value": "inactive: 0"}]}
{"smiles": "CC(=O)OCC1=C(C(=O)O)N2C(=O)[C@@H](N)[C@H]2SC1", "values": [{"measurement": "neuronal differentiation score", "setting": "[1]; library: Spectrum", "value": "inactive: 0"}, {"measurement": "dopaminergic neuron differentiation score", "setting": "[2]; library: Spectrum", "value": "inactive: 0"}]}
{"smiles": "CCCN(CCC)C1CCc2ccc(O)cc2C1", "note": "(centres undefined) [7-Hydroxy-DPAT hydrobromide]", "values": [{"measurement": "neuronal differentiation score", "setting": "[1]; library: Tocriscreen", "value": "inactive: 0"}, {"measurement": "dopaminergic neuron differentiation score", "setting": "[2]; library: Tocriscreen", "value": "inactive: 0"}]}
{"smiles": "CCNC1(c2cccs2)CCCCC1=O", "note": "(centres undefined)", "values": [{"measurement": "neuronal differentiation score", "setting": "[1]; library: Spectrum", "value": "inactive: 0"}, {"measurement": "dopaminergic neuron differentiation score", "setting": "[2]; library: Spectrum", "value": "inactive: 0"}]}
